For at least one compound, name, drawing or mass did not settle the structure.
System: xTMEM16A-induced CaCC currents
Test: Carbachol evoked current responses in Axolotl oocytes, voltage clamp at -60 mV
Format: cell-based, Xenopus
Details: carbachol 5 μM

In the case of `C[N+](C)(C)CCOC(N)=O` [carbachol, carbamylcholine], the “current response to carbachol” value (Axolotl oocytes injected only with xTMEM16A cRNA) is reported as “induced CaCC currents”, the “current response to carbachol” value (Axolotl oocytes injected with xTMEM16A and m1AChR cRNAs) is reported as “induced CaCC currents” and the “current response to carbachol” value (control (water injected) Axolotl oocytes) is reported as “failed to respond”.

From patent publication US20090307791A1, “CALCIUM-ACTIVATED CHLORIDE CHANNEL AND METHODS OF USE THEREOF” (priority 2008, published 2009)
